Values quoted from earlier work in patent publication US20210017174A1, “IDENTIFICATION AND USE OF ERK5 INHIBITOR” (Bayer Aktiengesellschaft, priority 2018, published 2021).
For at least one compound, name, drawing or mass did not settle the structure.

Chains of the proteins cited; added tags and fusions are not shown.
UniProt Q13164, whole entry, species assumed: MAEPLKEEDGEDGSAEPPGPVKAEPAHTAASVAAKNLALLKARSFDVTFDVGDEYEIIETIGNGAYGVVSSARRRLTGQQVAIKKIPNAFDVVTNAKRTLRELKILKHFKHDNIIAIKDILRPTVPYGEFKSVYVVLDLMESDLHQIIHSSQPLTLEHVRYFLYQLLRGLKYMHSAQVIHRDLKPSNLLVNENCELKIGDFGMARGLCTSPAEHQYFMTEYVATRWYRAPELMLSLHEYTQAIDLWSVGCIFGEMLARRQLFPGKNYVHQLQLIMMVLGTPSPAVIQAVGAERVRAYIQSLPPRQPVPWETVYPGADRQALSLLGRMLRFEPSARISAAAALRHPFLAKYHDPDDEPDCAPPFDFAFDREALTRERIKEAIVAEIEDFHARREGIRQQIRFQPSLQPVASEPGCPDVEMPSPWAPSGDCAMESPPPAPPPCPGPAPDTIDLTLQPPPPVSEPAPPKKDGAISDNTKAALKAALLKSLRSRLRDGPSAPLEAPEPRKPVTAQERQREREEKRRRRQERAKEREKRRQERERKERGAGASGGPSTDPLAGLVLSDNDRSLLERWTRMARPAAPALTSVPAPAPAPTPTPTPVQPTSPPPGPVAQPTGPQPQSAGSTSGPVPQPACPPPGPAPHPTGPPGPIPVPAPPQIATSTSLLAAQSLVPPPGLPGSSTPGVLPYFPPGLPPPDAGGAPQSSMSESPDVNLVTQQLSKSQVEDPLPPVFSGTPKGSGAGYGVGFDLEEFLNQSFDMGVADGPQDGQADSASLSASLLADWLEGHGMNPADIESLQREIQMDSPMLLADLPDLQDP

Biological target: ERK5 (Homo sapiens, UniProt Q13164)
Conditions: literature report, Tatake et al. 2008; cited from earlier work

CN(C)Cc1cccc(N/C(=C2\C(=O)Nc3cc(C(N)=O)ccc32)c2ccccc2)c1 [BIX 02188]
activity on ERK5 (reported): only modest activity on ERK5
